Source: the supplement of paper PMC7858590
± gives the standard deviation of the averaged measurements. This is one part of the list. This data set is noisy: repeats of one test often differ as much as different tests do.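 Macrophages came from blood monocytes pooled from four healthy donors and grown with M-CSF; these M1-like cells were treated with compounds that had pushed resting macrophages toward the M2-like state in a first-round screen. The Z-score is a t-test comparing cell eccentricity (about 1000 cells per well) with same-row DMSO wells; a compound counts as reprogramming when it passes the M2 cutoff of +6 set by standard cytokine controls (the M1 cutoff is −4).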

System: human monocyte-derived macrophages (polarized)
Assay: cell shape (eccentricity) Z-score vs DMSO control; macrophage state: M1-polarized (IFNg + TNFa), cytokines removed before treatment; higher = more elongated, M2-like morphology
Conditions: 24 h; 5 µM

`CCN1C[C@]2(COC)CC[C@H](OC)[C@]34C1[C@H]([C@H](OC)[C@H]23)[C@@]1(OC(C)=O)C[C@H](OC)[C@]2(O)C[C@@H]4[C@@H]1[C@H]2OC(=O)c1ccc(OC)cc1` and `COc1ccc2c3c([nH]c2c1)[C@H](CC(C)C)N1C(=O)[C@H](CCC(=O)OC(C)(C)C)NC(=O)[C@@H]1C3` are within error of each other in “cell shape (Z-score)” value: -0.539 ± 5 for the first, -0.402 ± 2.4 for the second.

`Clc1ccc(C(OCCN2CCCCC2)c2ccccc2)cc1` (stereo not given) and `CN1[C@@H]2CC[C@H]1C[C@@H](OC(c1ccccc1)c1ccccc1N)C2` (stereo not given in full) are within error of each other in “cell shape (Z-score)” value: 0.586 ± 1.6 for the first, -1.03 ± 4.7 for the second.

`CC(C)[C@]12O[C@H]1[C@@H]1O[C@]13[C@]1(O[C@H]1C[C@H]1C4=C(CC[C@@]13C)C(=O)OC4)[C@@H]2O` and `C=C(C)[C@@H]1[C@H]2OC(=O)[C@@H]1[C@]1(O)C[C@H]3O[C@]34C(=O)O[C@H]2[C@]14C` are within error of each other in “cell shape (Z-score)” value: 11.3 for the first, 4.23 ± 8.2 for the second.

`CCOC(=O)c1ncn2c1C1CCCN1C(=O)c1cc(OC)ccc1-2` (stereo not given) and `CCNC(=O)C[C@@H]1N=C(c2ccc(Cl)cc2)c2cc(OC)ccc2-n2c(C)nnc21` are within error of each other in “cell shape (Z-score)” value: -1.29 ± 4.9 for the first, -0.857 ± 1.7 for the second.

First: O=C1/C(=C/c2ccccc2)C[C@@]2(O)[C@H]3Cc4ccc(O)c5c4[C@@]2(CCN3CC2CC2)[C@H]1O5
Second: O=C(O)c1nn(Cc2ccc(Cl)cc2Cl)c2ccccc12
The “cell shape (Z-score)” value of the first is lower: -6.6 ± 0.72 for the first, 0.534 ± 3.2 for the second.

`CCC1(CC)C(=O)NC(=O)NC1=O` and `CCCN(CCC)C1CCc2cccc(O)c2C1` (stereo not given) are within error of each other in “cell shape (Z-score)” value: 0.425 ± 2.4 for the first, -0.719 ± 3 for the second.

`CNc1ccc2oc(C[C@H]3O[C@@]4(CC[C@H]3C)O[C@H]([C@H](C)C(=O)c3ccc[nH]3)[C@H](C)C[C@H]4C)nc2c1C(=O)O` and `CC[C@@H]1/C=C/C=C/C[C@H](C)[C@H](O)[C@](C)(O)C(=O)[C@H](C)[C@@H](O)[C@H](C)C(=O)[C@H](C)[C@@H](O)[C@H](C)/C=C/C(=O)O[C@H]2[C@@H](C)[C@@H](CC1)O[C@@]1(CC[C@@H](C)[C@@H](C[C@H](C)O)O1)[C@@H]2C` are within error of each other in “cell shape (Z-score)” value: 4.85 ± 8.8 for the first, -0.303 ± 1.2 for the second.

`COc1cc2ccc(=O)oc2c2ccoc12` and `COc1cc2c(c(OC)c1OC)-c1ccc(OC)c(=O)cc1[C@@H](NC(C)=O)CC2` are within error of each other in “cell shape (Z-score)” value: 0.424 ± 2.3 for the first, 0.558 ± 0.39 for the second.

`O=C1NC(=O)c2c1c1c3ccccc3[nH]c1c1[nH]c3ccccc3c21` and `CC(C)=CC1C(C(=O)OCc2coc(Cc3ccccc3)c2)C1(C)C` (stereo not given) are within error of each other in “cell shape (Z-score)” value: 7.69 ± 4.2 for the first, 3.62 ± 5.2 for the second.

`CCC(=O)CCCCC[C@@H]1NC(=O)[C@H]2CCCCN2C(=O)[C@H]([C@@H](C)CC)NC(=O)[C@H](Cc2cn(OC)c3ccccc23)NC1=O` and `CCCCCCCCCCCCCC(=O)O[C@@H]1[C@@H](C)[C@@]2(O)[C@@H](C=C(CO)C[C@]3(O)C(=O)C(C)=C[C@@H]23)[C@@H]2C(C)(C)[C@]12OC(C)=O` are within error of each other in “cell shape (Z-score)” value: -2.97 ± 4.8 for the first, -9.03 ± 1.6 for the second.

`C[C@]12CCC(=O)C=C1CC[C@@H]1C2CC[C@]2(C)C(=O)CCC12` (stereo not given in full) and `C[C@]12CC[C@@H](O)C[C@@H]1CC[C@@H]1[C@@H]2CC[C@]2(C)[C@@H](C(=O)CO)CC[C@@H]12` are within error of each other in “cell shape (Z-score)” value: -1.18 ± 0.91 for the first, 0.444 ± 4.1 for the second.

`COc1cc([C@@H]2c3cc4c(c(O)c3C[C@H]3COC(=O)[C@@H]32)OCO4)cc(OC)c1OC` and `COc1cc([C@@H]2c3cc4c(cc3[C@H](OC(C)=O)[C@H]3COC(=O)[C@H]23)OCO4)cc(OC)c1OC` are within error of each other in “cell shape (Z-score)” value: 2.01 ± 3.6 for the first, 2.84 ± 1.3 for the second.

Compared with `CN(C)C(=S)SSC(=S)N(C)C`, `COc1cc([C@@H]2c3cc4c(cc3[C@@H](O)[C@H]3COC(=O)[C@H]23)OCO4)cc(OC)c1O` is higher in “cell shape (Z-score)” value: -5.76 ± 3.9 for the first, 1.24 ± 0.99 for the second.

`Clc1ccc(C2=CCCC3CCC2N3)cn1` (stereo not given) and `c1cc2c(c(N3CCNCC3)c1)OCCO2` are within error of each other in “cell shape (Z-score)” value: -3.88 ± 6.8 for the first, 0.201 ± 6.1 for the second.

`CCn1cc(C(=O)O)c(=O)c2cc3c(cc21)OCO3` and `Cc1sc2c(c1C)C(c1ccc(Cl)cc1)=N[C@@H](CC(=O)OC(C)(C)C)c1nnc(C)n1-2` are within error of each other in “cell shape (Z-score)” value: -0.429 ± 3.7 for the first, -0.787 ± 5.1 for the second.
